According to PubChem BioAssay AID662 (National Center for Advancing Translational Sciences (NCATS), 2007):
The list shows a part of the results. The main result of the screen is listed elsewhere. These columns were measured beside it and carry no call. Most of these compounds were active or inconclusive in the main read-out, so they are no random draw. The note in brackets gives the kind of curve behind each potency; many fits are weak.

Assay: Cell signaling CRE-BLA (Fsk stim)
Details: CHO CRE-bla reporter (cAMP response element driving beta-lactamase), forskolin EC10, beta-lactamase ratio; measured here: 460 nm blue channel
How it was run: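 AC50 values, positive or negative, reflect shifts in EC10 NKH 477-induced CRE-bla reporter activity in CHO cells. Incubation lasted 3 h at 37 °C before CCF4 substrate (2 h, room temperature) and ratiometric 460/530 nm reading.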

Row | SMILES | AC50
1 | COc1ccccc1N1CCN(C(=O)C2c3ccccc3Oc3ccccc32)CC1 | 12.6 µM [rising, partial curve]
2 | O=c1c(-c2cccs2)nc2cncnc2n1Cc1ccc(F)cc1 | 0.631 µM [rising, single point]
3 | O=C(c1c(Cl)nc2sccn12)N1CCN(c2cccc(Cl)c2)CC1 | 20 µM [rising, single point]
4 | Cc1cc(C)nc(-n2nc(C)cc2NC(=O)CN2CCC(C)CC2)n1 | 10 µM [rising, partial curve]
5 | O=C(Cn1nnc(-c2ccccc2NC(=O)c2ccco2)n1)Nc1ccccc1 | 12.6 µM [rising, partial curve]
6 | O=C(CCS(=O)(=O)c1cccc2nonc12)N1CCOCC1 | 0.0158 µM [falling, full curve]
7 | COc1ccc(-c2cc(C(F)(F)F)nc(NCc3ccco3)n2)cc1OC | 1.58 µM [rising, full curve]
8 | O=C(Nc1ccc(S(=O)(=O)NCc2ccco2)cc1)c1ccc2ccccc2n1 | 0.0794 µM [falling, full curve, poor fit]
9 | CCOC(=O)c1[nH]c(CSc2nnc(-c3ccncc3)n2CCOC)c(C(=O)OCC)c1C | 15.8 µM [rising, single point]
10 | Cc1sc2ncnc(Sc3nnnn3-c3ccc(Cl)cc3)c2c1C | 3.98 µM [falling, full curve]
11 | CCOC(=O)C1CCN(c2ncnc3nc[nH]c23)CC1 | 5.01 µM [rising, single point]
12 | CN1CCC(=C2c3ccccc3C=Cc3ccccc32)CC1 | 31.6 µM [falling, single point]
13 | CCCc1cc(=O)[nH]c(Nc2cc(OC)ccc2OC)n1 | 20 µM [rising, single point]
14 | O=C(O)CCSCC(=O)Nc1c(C(=O)C2CC2)oc2ccccc12 | 12.6 µM [rising, partial curve, poor fit]
15 | CCCNC[C@H](O)COc1ccccc1C(=O)CCc1ccccc1 | 12.6 µM [falling, single point]
16 | CN(C)C(CNC(=O)CCCc1c[nH]c2ccccc12)c1ccco1 (centres undefined) | 0.00316 µM [falling, full curve, poor fit]
17 | N#Cc1c(-c2ccccc2)no[n+]1[O-] | 15.8 µM [falling, partial curve]
18 | COc1ccc(C2NCCc3cc(OC)c(OC)cc32)cc1OC (centres undefined) | 12.6 µM [rising, partial curve]
19 | Cn1cc(S(=O)(=O)NCc2cccs2)c(=O)n(C)c1=O | 12.6 µM [rising, partial curve]

Reprinted: nos. 15–16
Row | SMILES | AC50
15 | CCCNC[C@H](O)COc1ccccc1C(=O)CCc1ccccc1 | 12.6 µM [falling, single point]
16 | CN(C)C(CNC(=O)CCCc1c[nH]c2ccccc12)c1ccco1 (centres undefined) | 0.00316 µM [falling, full curve, poor fit]
